Results deposited as PubChem BioAssay AID686937 (Drosophila RNAi Screening Center, 2013)
In all, the deposit lists about 23,000 reagents; this is a random part of those that have a named target and a result. 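Reduced-secretion tags in replicate 1 do not always agree with the z-scores; no criterion for assigning the tags was given.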 Further read-outs or replicates are left out here. Not given: the amount of reagent.

Test: 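Knock-downs that reduce output of a secreted reporter enzyme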 (primary screen)
Cell system: Drosophila S2 cells expressing secreted horseradish peroxidase
Reagents: long dsRNA against Drosophila genes
Duration: about 5.5 days (5 days dsRNA, then 12 h reporter induction)
Treatment: reporter expression induced after 5 days of dsRNA, read 12 h later; inducer not stated
Read-out: 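After 5 days of dsRNA and 12 h of reporter induction, medium peroxidase read by chemiluminescence and scored as per-plate z-score; higher values mean more reporter released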
Scale: z-score: higher = more reporter secreted into medium

gene | dsRNA | z-score, replicate 1 | z-score, replicate 2
mlt (retired record) | DRSC06120 | 0.29 | 0.31
CR18166 (pseudo) | DRSC17260 | 0.07 | -0.08
CR18166 (pseudo) | DRSC18147 | 0.43 | 0.42
crb (crumbs) | DRSC16927 | 0.44 | 0.41
COX3 (retired record) | DRSC21279 | 0.43 | 0.43
CG31198 | DRSC15891 | 0.19 | 0.16
lbe (ladybird early) | DRSC16985 | 0.19 | 0.3
CG30432 | DRSC04833 | -0.47 | –
Cds (CDP-diacylglycerol synthase) | DRSC10938 | -0.1 | 0.04
CG8028 | DRSC20075 | -0.05 | 0.27
CG10674 | DRSC09775 | 0.33 | 0.48
CG8539 | DRSC10988 | 0.25 | 0.25
CG8539 | DRSC21798 | -0.45 | -0.44
CG3566 | DRSC18311 | 0.31 | 0.29
pdgy (pudgy) | DRSC19064 | -0.08 | -0.8
pdgy (pudgy) | DRSC19341 | 0.07 | 0.37
Smyd4-1 (SET and MYND domain containing, class 4, member 1) | DRSC06785 | 0.5 | 0.37
CG13001 | DRSC19520 | 0.31 | 0.19
CG13001 | DRSC22443 | 0.21 | -0.13
CG10730 | DRSC02102 | 0.57 | 0.52
Pbp95 (PSEA-binding protein 95kD) | DRSC15448 | 0.24 | 0.43
Sdr (Secreted decoy of InR) | DRSC15517 | 0.52 | 0.2
CG12253 | DRSC02153 | 0.63 | 0.2
CG44774 | DRSC18342 | 0.3 | 0.3
CG3437 | DRSC10366 | 0.09 | 0.26
CG32276 | DRSC08027 | 0.19 | 0.32
CG31495 | DRSC16762 | 0.13 | 0.37
AIMP2 (aaRS-interacting multifunctional protein 2) | DRSC09877 | 0.38 | 0.41
CG13561 | DRSC04199 | 0.24 | 0.41
AOX4 (Aldehyde oxidase 4) | DRSC15337 | 0.09 | 0.55
CG6610 | DRSC10674 | 0.11 | 0.23

Next part; the last 6 above are carried over.
gene | dsRNA | z-score, replicate 1 | z-score, replicate 2
CG32276 | DRSC08027 | 0.19 | 0.32
CG31495 | DRSC16762 | 0.13 | 0.37
AIMP2 (aaRS-interacting multifunctional protein 2) | DRSC09877 | 0.38 | 0.41
CG13561 | DRSC04199 | 0.24 | 0.41
AOX4 (Aldehyde oxidase 4) | DRSC15337 | 0.09 | 0.55
CG6610 | DRSC10674 | 0.11 | 0.23
CG17684 | DRSC07724 | 0.11 | -0.34
CG17684 | DRSC21166 | 0.53 | 0.23
Dbx | DRSC08270 | 0.22 | 0.17
Dbx | DRSC08271 | 0.49 | 0.35
Dbx | DRSC08394 | 0.29 | 0.29
Chc (Clathrin heavy chain) | DRSC20229 | -0.09 | -0.35
ImpE3 (Ecdysone-inducible gene E3) | DRSC16716 | -1.17 | -0.54
CG14332 | DRSC14811 | 0.37 | 0.56
CG8157 | DRSC07085 | 0.42 | 0.49
CG8157 | DRSC21595 | 0.81 | 0.13
GstZ2 (Glutathione S transferase Z2) | DRSC16479 | 0.33 | 0.35
CG4461 | DRSC10423 | 0.25 | 0.44
CG8079 | DRSC07070 | 0.7 | 0.64
CG8079 | DRSC07071 | 0.25 | 0.33
SMC5 (Structural maintenance of chromosomes 5) | DRSC11849 | 0.54 | 0.46
CG9919 | DRSC20219 | 0.4 | 0.6
CG6836 | DRSC10722 | 0.43 | 0.49
PIG-H (Phosphatidylinositol glycan anchor biosynthesis class H) | DRSC14856 | 0.51 | 0.5
Or98a (Odorant receptor 98a) | DRSC16774 | 0.27 | 0.51
CG13312 | DRSC09983 | 0.23 | 0.26
RpL12 (Ribosomal protein L12) | DRSC04344 | -3.45 | -4.16
qkr58E-3 (quaking related 58E-3) | DRSC04711 | 0.35 | 0.38
Rbf (Retinoblastoma-family protein) | DRSC18704 | 0.06 | 0.28
Saf6 (SAGA factor-like TAF6) | DRSC00633 | 0.5 | 0.6
CG31482 | DRSC12582 | 0.19 | 0.03
PSMG1 (Proteasome assembly chaperone 1) | DRSC12297 | 0.36 | -0.06
CG7166 | DRSC11809 | 0.14 | 0.24
TwdlD (TweedleD) | DRSC14738 | 0.36 | 0.51
lost | DRSC12002 | 0.59 | 0.45
lost | DRSC12234 | -0.28 | 0.26
lost | DRSC21987 | 1.27 | 0.88
VhaAC39-1 (Vacuolar H[+] ATPase AC39 subunit 1) | DRSC18242 | -0.54 | -1.25
fy (fuzzy) | DRSC03533 | 0.23 | -0.01
chas (chascon) | DRSC19508 | -0.05 | 0.12
chas (chascon) | DRSC19509 | 0.37 | 0.27
Tk (Tachykinin) | DRSC14954 | 0.61 | -0.09
Tk (Tachykinin) | DRSC21972 | 0.51 | 0.16
mRpS18B (mitochondrial ribosomal protein S18B) | DRSC02107 | -0.06 | 0.13
CG17108 | DRSC02576 | 0.16 | 0.26
CG17108 | DRSC22214 | -0.82 | -0.36
REPTOR (Repressed by TOR) | DRSC14626 | 0.43 | 0.4
ND-24 (NADH dehydrogenase (ubiquinone) 24 kDa subunit) | DRSC19960 | 0.08 | 0.07
dpr7 (defective proboscis extension response 7) | DRSC17109 | 0.19 | -0.53
CG15701 | DRSC06572 | 0.33 | 0.3
CG32032 | DRSC08961 | 0.24 | 0.33
Tif-IA | DRSC03717 | -0.11 | -0.42
Tif-IA | DRSC03726 | -0.71 | -0.76
Pop2 | DRSC10537 | -1.79 | -1.01
CG33969 | DRSC11777 | 0.22 | 0.28
Wdr24 (WD repeat domain 24) | DRSC14151 | -0.89 | -1.27
CG33172 | DRSC21793 | -0.68 | -0.16
